These are yes or no findings as the source states them, for the method shown. Binding seen in cells or lysates may run through a third protein. Some results given as binding are weak or reduced against the parent protein; the word gives no strength. Each block holds one substance with its values, some of them ahead of it.
Key:
[1] = biological target: Sox-2 (mouse (endogenous in C57BL/6J embryos)) (UniProt P48432); experiment: proximity ligation; DuoLink PLA on 7 um paraffin sections of paraformaldehyde-fixed GD 9.5 mouse embryo neural tube; pairs of primary antibodies bound within 40 nm; confocal imaging
[2] = biological target: GPR 161 (mouse (endogenous in C57BL/6J embryos)) (UniProt B2RPY5); experiment: as above
[3] = biological target: Smoothened (mouse (endogenous in C57BL/6J embryos)) (UniProt P56726); experiment: co-IP; anti-Smo affinity resin, CHAPS-solubilised GD 8 whole mouse embryos pooled as a litter, 3 hrs at 0-4 °C; blots for CB1R and Gαs; dams treated with CB vehicle, alcohol 2.8 g/kg, CP 55,940 0.25 mg/kg or both
[4] = biological target: Arl13b (mouse (endogenous in C57BL/6J embryos)) (UniProt Q640N2); experiment: proximity ligation; DuoLink PLA on 7 um paraffin sections of paraformaldehyde-fixed GD 9.5 mouse embryo neural tube; pairs of primary antibodies bound within 40 nm; confocal imaging

Chains of the proteins cited; added tags and fusions are not shown. Residues count along the entry.
UniProt P48432: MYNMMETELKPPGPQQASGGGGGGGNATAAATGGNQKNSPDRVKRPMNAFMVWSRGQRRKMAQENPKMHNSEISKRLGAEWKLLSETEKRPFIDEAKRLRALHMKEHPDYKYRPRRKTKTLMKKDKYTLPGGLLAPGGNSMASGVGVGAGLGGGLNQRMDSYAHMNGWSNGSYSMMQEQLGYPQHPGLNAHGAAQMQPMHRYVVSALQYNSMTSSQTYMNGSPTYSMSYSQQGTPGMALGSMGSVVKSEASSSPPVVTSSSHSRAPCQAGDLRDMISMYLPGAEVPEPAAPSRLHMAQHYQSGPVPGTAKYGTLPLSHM
UniProt B2RPY5: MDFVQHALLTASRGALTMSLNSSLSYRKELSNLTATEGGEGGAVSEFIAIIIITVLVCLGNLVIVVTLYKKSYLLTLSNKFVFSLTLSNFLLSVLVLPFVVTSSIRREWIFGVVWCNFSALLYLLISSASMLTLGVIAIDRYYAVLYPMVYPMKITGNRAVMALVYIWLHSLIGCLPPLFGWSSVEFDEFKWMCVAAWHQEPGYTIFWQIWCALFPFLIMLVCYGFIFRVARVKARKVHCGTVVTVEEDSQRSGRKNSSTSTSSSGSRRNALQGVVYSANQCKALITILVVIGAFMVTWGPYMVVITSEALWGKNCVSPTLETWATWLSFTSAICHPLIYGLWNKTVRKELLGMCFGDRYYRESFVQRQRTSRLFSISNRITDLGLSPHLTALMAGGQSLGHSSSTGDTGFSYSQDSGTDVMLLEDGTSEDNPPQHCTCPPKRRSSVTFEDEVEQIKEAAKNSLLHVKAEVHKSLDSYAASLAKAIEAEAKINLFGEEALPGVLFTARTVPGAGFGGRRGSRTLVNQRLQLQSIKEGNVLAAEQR
UniProt P56726, residues 33-793: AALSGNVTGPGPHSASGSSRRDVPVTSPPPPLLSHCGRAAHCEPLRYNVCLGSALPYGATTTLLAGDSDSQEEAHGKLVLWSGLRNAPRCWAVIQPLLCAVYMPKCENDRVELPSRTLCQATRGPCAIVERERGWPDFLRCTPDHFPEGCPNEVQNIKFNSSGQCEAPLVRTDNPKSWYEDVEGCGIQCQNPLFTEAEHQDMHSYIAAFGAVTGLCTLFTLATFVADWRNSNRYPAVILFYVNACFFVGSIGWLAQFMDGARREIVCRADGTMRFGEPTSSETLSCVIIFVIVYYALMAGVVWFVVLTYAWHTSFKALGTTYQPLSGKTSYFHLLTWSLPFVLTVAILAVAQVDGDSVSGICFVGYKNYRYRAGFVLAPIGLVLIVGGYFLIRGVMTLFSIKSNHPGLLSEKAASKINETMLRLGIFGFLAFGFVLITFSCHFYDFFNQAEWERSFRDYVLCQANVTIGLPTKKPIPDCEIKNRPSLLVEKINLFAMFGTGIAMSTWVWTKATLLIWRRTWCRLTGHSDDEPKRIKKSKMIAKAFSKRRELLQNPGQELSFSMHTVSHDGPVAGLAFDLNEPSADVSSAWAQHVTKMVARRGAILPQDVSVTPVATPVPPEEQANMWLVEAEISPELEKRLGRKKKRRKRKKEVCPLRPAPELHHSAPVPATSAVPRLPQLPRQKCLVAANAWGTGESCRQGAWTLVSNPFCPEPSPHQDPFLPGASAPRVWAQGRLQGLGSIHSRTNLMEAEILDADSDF
UniProt Q640N2: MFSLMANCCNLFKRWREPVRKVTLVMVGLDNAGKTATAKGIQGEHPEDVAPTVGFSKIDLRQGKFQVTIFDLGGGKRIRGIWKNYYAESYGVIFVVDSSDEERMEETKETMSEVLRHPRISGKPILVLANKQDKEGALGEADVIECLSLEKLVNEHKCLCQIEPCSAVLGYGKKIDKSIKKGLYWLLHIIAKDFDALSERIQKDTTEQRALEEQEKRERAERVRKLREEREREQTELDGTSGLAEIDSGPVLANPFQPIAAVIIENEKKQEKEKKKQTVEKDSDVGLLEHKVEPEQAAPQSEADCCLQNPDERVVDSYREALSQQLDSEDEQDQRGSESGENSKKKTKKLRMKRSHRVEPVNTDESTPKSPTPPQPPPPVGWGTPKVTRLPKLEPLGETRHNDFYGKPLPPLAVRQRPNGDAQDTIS
UniProt P47746: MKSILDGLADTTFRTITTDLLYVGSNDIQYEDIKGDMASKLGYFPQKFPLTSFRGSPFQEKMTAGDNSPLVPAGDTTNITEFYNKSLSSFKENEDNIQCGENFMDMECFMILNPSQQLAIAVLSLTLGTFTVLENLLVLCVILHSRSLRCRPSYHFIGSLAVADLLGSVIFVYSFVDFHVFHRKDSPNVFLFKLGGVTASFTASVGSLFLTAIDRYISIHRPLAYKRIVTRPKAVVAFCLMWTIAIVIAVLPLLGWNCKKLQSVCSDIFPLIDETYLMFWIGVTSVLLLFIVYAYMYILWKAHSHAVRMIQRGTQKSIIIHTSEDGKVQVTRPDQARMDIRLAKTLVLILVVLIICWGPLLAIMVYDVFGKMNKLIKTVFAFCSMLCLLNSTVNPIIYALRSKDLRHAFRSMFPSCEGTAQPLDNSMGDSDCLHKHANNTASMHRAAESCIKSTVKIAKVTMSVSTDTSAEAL
UniProt P63094: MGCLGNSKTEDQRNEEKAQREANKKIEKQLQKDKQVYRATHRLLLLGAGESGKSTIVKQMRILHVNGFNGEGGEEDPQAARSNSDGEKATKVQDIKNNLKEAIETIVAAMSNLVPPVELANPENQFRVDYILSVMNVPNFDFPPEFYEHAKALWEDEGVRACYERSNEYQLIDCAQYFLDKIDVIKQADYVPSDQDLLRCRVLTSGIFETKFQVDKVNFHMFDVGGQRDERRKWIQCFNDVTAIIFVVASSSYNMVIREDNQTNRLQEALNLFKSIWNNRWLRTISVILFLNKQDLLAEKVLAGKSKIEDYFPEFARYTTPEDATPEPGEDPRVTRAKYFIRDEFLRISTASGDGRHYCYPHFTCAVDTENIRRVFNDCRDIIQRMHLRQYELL

- binding [1]: no binding
- binding [2]: binds
Substance: CB1 receptor (from UniProt P47746 1-473)

- binding [3]: binds
Substance: Gαs (from UniProt P63094 1-394)

- binding [4]: no binding
Substance: Smoothened (from UniProt P56726 33-793) (receptor)

Reference: paper PMC6831672
